# Experimental data reported in PubChem BioAssay (NCATS).
# Some of the results follow. Shown are side measurements of this screen, not its main read-out; they come without a call. Most of these compounds were active or inconclusive in the main read-out, so they are no random draw. For part of these data: Words in brackets tell the shape of the fitted curve; partial curves, single points and poor fits give uncertain potencies.
# Assays:
# [1] = qHTS assay for small molecule antagonists of peroxisome proliferator-activated receptor gamma signaling (AID 588537); conditions: HEK293 PPARg-UAS-bla, beta-lactamase ratio, antagonist mode; measured here: W460 blue channel
# Outline: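 We seeded GeneBLAzer HEK293 reporter cells at 3000 per well, allowed 6-6.5 h attachment at 37 C, then co-treated with test compound titrations and 50 nM rosiglitazone overnight (16 h). Inhibition was quantified from 460/530 nm emission ratios.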
# [2] = qHTS assay for small molecule agonists of retinoid X receptor alpha signaling (AID 588544); conditions: HEK293T RXRa-UAS-bla, beta-lactamase reporter, 18 h; 530 nm emission
# [3] = qHTS assay for small molecule antagonists of retinoid X receptor alpha signaling (AID 588546); conditions: HEK293T RXRa-UAS-bla, beta-lactamase ratio, antagonist mode; measured here: W530 green channel, cytotoxicity proxy;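 also: cells stimulated with 9-cis-retinoic acid as agonist; % is scaled to controls: 0 for no effect and ±100 for the full control effect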
# Outline: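 Beta-lactamase reporter inhibition, read as CCF4 fluorescence ratio (ex 405, em 460/530 nm) after 2 h at RT. HEK293T UAS-bla cells, 2500/well, were stimulated with 9-cis-RA at 500 or 100 nM final alongside test compound for 18 h at 37 C.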
# [4] = S16 Schwann cell PMP22 intronic element beta-lactamase assay (AID 624044); conditions: S16 rat Schwann cells, PMP22 element beta-lactamase FRET, 24 h
# Outline: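 Rat S16 Schwann cells with beta-Lac driven by a PMP22 intronic element, compound-treated 24 h at 37 °C. LiveBLAzer FRET B/G read: 460 nm normalized to potassium clavulanate vs DMSO; 535 nm FRET as viability; concentration-effect curves classified.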
# [5] = measured here: 460 nm blue channel
# [6] = measured here: 530 nm viability channel
compound,measurement,setting,value
c1ccc(N=NNc2ccccc2)cc1,AC50,[1],"35.5 µM [falling, partial curve, poor fit]"
same,max response,[2],6.83%
same,max response,[3],-8.26%
C[C@]12C/C(=C/O)C(=O)C[C@@H]1CC[C@@H]1[C@@H]2CC[C@@]2(C)[C@H]1CC[C@]2(C)O,AC50,[1],"50.1 µM [rising, single point]"
same,max response,[2],73.5%
same,max response,[3],40.1%
Nc1cccc2ccccc12,AC50,[1],"63.1 µM [rising, single point]"
same,max response,[2],13.5%
COC(=O)c1c(C(F)F)nc(C(F)(F)F)c(C2=NCCS2)c1CC(C)C,AC50,[1],"0.0355 µM [falling, full curve, poor fit]"
same,max response,[2],10.6%
Cc1ccc(N=CN(C)C=Nc2ccc(C)cc2C)c(C)c1,AC50,[1],"0.0224 µM [falling, full curve, poor fit]"
same,max response,[2],8.14%
CC(C)=CC1C(C(=O)OCc2coc(Cc3ccccc3)c2)C1(C)C (stereo unspecified),AC50,[4]; [5],"12.6 µM [falling, single point]"
O=C(O)c1ccccc1Nc1cccc(C(F)(F)F)c1,AC50,[4]; [5],"25.1 µM [rising, partial curve]"
C[C@H](CCCC(C)(C)O)[C@H]1CC[C@H]2[C@@H]3CC=C4C[C@@H](O)CC[C@]4(C)[C@H]3CC[C@]12C,AC50,[4]; [6],"11.2 µM [rising, partial curve]"
CNC(=O)Oc1ccc2c(c1)[C@]1(C)CCN(C)[C@@H]1N2C,AC50,[4]; [6],"31.6 µM [falling, single point]"
C[C@]12CCC3C(CCC4=C(Cl)C(=O)CC[C@@]43C)C1CCC2O (stereo partly specified),AC50,[4]; [5],"7.94 µM [falling, partial curve, poor fit]"
CC(C)c1c(CN(C)[C@@H](C)Cc2ccccc2)n(C)n(-c2ccccc2)c1=O,AC50,[4]; [5],"0.00848 µM [falling, full curve]"
CC(=O)OO,AC50,[4]; [5],"2.24 µM [falling, full curve, poor fit]"
OCCOc1ccccc1,AC50,[4]; [5],"0.0446 µM [falling, full curve, poor fit]"
CC(C)CCC(=O)OC1CCC2C3CCC4=CC(=O)CC[C@]4(C)C3CC[C@]12C (stereo partly specified),AC50,[4]; [5],"22.4 µM [rising, partial curve]"
CCCCCC(O)C1C(=O)OC(C)C(O)\C=C/C=C\C=C/C=C\C=C(\C)C(O)C(O)C(O)CC(O)CC(O)CC(O)CC(O)CC1O (stereo unspecified),AC50,[4]; [6],"2 µM [falling, full curve, poor fit]"
Oc1cc[c]([Hg][Cl])cc1,AC50,[4]; [5],"5.62 µM [falling, full curve]"
same,AC50,[4]; [6],"2.82 µM [rising, full curve]"
C[C@]12CC[C@H]3[C@@H](CC=C4C[C@@H](O)CC[C@@]43C)[C@@H]1CC[C@@H]2O,AC50,[4]; [5],"1.26 µM [falling, full curve, poor fit]"
NC(C(=O)O)[C@@H]1CC(Cl)=NO1 (stereo partly specified),AC50,[4]; [5],"19.9 µM [falling, partial curve]"
CO[C@@H](COC(N)=O)C1=C(N2CC2)C(=O)C(C)=C(N2CC2)C1=O,AC50,[4]; [5],"2.82 µM [falling, full curve]"
same,AC50,[4]; [6],"0.355 µM [rising, full curve]"
COC(C(=O)C(O)C(C)O)C1Cc2cc3cc(OC4CC(OC5CC(O)C(OC)C(C)O5)C(OC(C)=O)C(C)O4)c(C)c(O)c3c(O)c2C(=O)C1OC1CC(OC2CC(OC3CC(C)(O)C(OC(C)=O)C(C)O3)C(O)C(C)O2)C(O)C(C)O1 (stereo unspecified),AC50,[4]; [5],"0.0398 µM [falling, full curve]"
same,AC50,[4]; [6],"17.8 µM [rising, partial curve]"
CCCCCCCCCc1ccc(OCCOCCOCCOCCOCCOCCOCCOCCOCCO)cc1,AC50,[4]; [5],"22.4 µM [falling, partial curve, poor fit]"
C[C@]12O[C@H](C[C@]1(O)CO)n1c3ccccc3c3c4c(c5c6ccccc6n2c5c31)CNC4=O,AC50,[4]; [5],"15.8 µM [falling, partial curve]"
O=c1ccc2cc(O[C@H]3O[C@@H](CO)[C@@H](O)[C@@H](O)[C@@H]3O)c(O)cc2o1,AC50,[4]; [5],"5.35 µM [rising, partial curve]"
same,AC50,[4]; [6],"5.01 µM [rising, full curve]"
C/C(=C\c1csc(C)n1)[C@@H]1C[C@@H]2O[C@]2(C)CCC[C@H](C)[C@H](O)[C@@H](C)C(=O)C(C)(C)[C@@H](O)CC(=O)O1,AC50,[4]; [5],"9.99 µM [falling, full curve, poor fit]"
same,AC50,[4]; [6],"28.2 µM [falling, single point]"

# 3 entries picked at random from those above:
compound,measurement,setting,value
CC(C)CCC(=O)OC1CCC2C3CCC4=CC(=O)CC[C@]4(C)C3CC[C@]12C (stereo partly specified),AC50,[4]; [5],"22.4 µM [rising, partial curve]"
C[C@]12C/C(=C/O)C(=O)C[C@@H]1CC[C@@H]1[C@@H]2CC[C@@]2(C)[C@H]1CC[C@]2(C)O,max response,[2],73.5%
same,AC50,[1],"50.1 µM [rising, single point]"
